No constants are given. Whether binding was seen depends on the method and setting. In cells and extracts the contact can be indirect. Some entries that bind do so weakly or less than the wild type.
Target: Filamin A (FLNA), endogenous (human (endogenous in HepG2, HLF, HuH7, Hep3B and human organoids)) (UniProt P21333)
Test: proximity ligation; DuoLink in situ PLA with anti-DLC1, anti-FLNA and anti-MRTF-A antibodies in fixed HepG2, HLF, HuH7, Hep3B cells and monolayers of human organoids; treatments: HA-FLNA-ABD or GFP-DLC1 expression, tat-DLC1bp, HA-100, EGF, LPA, Latrunculin B, S14C-actin, RhoAV14

Amino acid sequences for entries named in this document (tags omitted).
UniProt P21333: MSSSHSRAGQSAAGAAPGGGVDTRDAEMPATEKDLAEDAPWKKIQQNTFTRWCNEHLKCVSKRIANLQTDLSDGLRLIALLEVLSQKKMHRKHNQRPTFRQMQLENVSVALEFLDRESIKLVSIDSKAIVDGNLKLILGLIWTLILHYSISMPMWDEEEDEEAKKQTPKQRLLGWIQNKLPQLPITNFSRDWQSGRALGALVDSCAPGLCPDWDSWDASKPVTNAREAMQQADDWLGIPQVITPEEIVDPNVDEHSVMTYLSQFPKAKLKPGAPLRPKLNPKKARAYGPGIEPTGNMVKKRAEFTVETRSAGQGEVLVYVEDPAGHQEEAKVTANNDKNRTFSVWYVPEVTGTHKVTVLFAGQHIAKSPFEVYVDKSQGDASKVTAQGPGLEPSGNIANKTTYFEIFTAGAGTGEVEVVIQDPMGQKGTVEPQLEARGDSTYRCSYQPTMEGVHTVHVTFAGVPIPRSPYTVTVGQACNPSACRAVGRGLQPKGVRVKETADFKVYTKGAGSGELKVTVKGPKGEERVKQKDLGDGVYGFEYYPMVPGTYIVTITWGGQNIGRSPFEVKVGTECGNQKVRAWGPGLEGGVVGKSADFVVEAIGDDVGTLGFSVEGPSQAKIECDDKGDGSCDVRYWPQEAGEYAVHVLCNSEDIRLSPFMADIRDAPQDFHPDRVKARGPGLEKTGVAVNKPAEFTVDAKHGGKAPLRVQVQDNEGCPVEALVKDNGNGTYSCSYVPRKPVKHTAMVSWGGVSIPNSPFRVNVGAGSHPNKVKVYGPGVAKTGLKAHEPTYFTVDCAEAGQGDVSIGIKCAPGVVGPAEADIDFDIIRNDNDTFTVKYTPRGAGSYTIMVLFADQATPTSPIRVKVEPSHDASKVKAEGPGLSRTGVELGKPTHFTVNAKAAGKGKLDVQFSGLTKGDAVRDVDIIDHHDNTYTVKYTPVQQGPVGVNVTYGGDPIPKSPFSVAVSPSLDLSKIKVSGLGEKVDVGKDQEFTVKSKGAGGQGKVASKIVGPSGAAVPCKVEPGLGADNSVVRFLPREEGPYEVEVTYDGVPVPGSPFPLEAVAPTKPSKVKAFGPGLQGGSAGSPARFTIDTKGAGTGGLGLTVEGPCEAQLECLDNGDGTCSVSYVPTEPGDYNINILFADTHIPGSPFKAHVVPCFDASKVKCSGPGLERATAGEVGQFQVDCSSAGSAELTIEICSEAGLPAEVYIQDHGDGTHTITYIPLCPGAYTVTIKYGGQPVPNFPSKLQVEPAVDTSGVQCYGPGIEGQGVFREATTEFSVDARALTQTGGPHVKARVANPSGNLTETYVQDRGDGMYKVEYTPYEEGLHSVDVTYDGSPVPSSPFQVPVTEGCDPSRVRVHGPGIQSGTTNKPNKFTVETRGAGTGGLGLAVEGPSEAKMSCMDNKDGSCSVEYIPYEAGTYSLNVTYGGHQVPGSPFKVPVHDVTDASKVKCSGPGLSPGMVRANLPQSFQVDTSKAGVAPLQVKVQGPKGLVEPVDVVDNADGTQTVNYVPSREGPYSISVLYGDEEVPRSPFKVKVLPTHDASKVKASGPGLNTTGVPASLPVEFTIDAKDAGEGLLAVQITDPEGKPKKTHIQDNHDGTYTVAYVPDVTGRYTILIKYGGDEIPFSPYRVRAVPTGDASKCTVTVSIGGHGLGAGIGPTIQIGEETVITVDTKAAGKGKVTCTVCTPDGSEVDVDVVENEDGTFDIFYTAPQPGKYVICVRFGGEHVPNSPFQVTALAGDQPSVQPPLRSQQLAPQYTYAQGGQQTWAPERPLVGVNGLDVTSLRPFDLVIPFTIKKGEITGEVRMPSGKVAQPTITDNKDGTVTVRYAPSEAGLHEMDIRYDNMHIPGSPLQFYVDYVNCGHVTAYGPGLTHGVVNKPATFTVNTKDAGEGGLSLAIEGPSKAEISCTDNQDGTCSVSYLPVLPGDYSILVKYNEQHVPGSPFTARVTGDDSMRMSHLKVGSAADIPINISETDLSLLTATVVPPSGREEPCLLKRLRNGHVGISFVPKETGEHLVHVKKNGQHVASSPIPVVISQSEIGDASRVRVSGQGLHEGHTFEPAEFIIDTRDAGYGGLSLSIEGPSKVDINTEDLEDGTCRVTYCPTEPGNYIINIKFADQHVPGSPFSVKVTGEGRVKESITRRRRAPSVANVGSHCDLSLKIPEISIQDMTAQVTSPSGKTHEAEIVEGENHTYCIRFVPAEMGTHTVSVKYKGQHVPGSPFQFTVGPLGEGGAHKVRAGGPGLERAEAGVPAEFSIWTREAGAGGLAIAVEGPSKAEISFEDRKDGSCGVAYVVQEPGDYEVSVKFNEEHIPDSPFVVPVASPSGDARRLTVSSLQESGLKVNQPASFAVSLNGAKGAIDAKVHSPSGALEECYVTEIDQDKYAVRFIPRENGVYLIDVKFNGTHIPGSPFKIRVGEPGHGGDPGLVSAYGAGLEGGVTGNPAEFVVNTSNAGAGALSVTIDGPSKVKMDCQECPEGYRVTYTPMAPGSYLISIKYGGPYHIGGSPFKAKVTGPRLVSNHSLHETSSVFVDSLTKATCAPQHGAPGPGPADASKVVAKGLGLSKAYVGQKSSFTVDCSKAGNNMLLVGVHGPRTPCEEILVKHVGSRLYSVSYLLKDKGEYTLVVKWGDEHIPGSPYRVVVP

B1: Myocardin-related transcription factor A (MRTF-A), endogenous (protein, UniProt Q969V6 1-931)
chain: MPPLKSPAAFHEQRRSLERARTEDYLKRKIRSRPERSELVRMHILEETSAEPSLQAKQLKLKRARLADDLNEKIAQRPGPMELVEKNILPVESSLKEAIIVGQVNYPKVADSSSFDEDSSDALSPEQPASHESQGSVPSPLEARVSEPLLSATSASPTQVVSQLPMGRDSREMLFLAEQPPLPPPPLLPPSLTNGTTIPTAKSTPTLIKQSQPKSASEKSQRSKKAKELKPKVKKLKYHQYIPPDQKQDRGAPPMDSSYAKILQQQQLFLQLQILNQQQQQHHNYQAILPAPPKSAGEALGSSGTPPVRSLSTTNSSSSSGAPGPCGLARQNSTSLTGKPGALPANLDDMKVAELKQELKLRSLPVSGTKTELIERLRAYQDQISPVPGAPKAPAATSILHKAGEVVVAFPAARLSTGPALVAAGLAPAEVVVATVASSGVVKFGSTGSTPPVSPTPSERSLLSTGDENSTPGDTFGEMVTSPLTQLTLQASPLQILVKEEGPRAGSCCLSPGGRAELEGRDKDQMLQEKDKQIEALTRMLRQKQQLVERLKLQLEQEKRAQQPAPAPAPLGTPVKQENSFSSCQLSQQPLGPAHPFNPSLAAPATNHIDPCAVAPGPPSVVVKQEALQPEPEPVPAPQLLLGPQGPSLIKGVAPPTLITDSTGTHLVLTVTNKNADSPGLSSGSPQQPSSQPGSPAPAPSAQMDLEHPLQPLFGTPTSLLKKEPPGYEEAMSQQPKQQENGSSSQQMDDLFDILIQSGEISADFKEPPSLPGKEKPSPKTVCGSPLAAQPSPSAELPQAAPPPPGSPSLPGRLEDFLESSTGLPLLTSGHDGPEPLSLIDDLHSQMLSSTAILDHPPSPMDTSELHFVPEPSSTMGLDLADGHLDSMDWLELSSGGPVLSLAPLSTTAPSLFSTDFLDGHDLQLHWDSCL
With B1 as the binder, how does the binding read?
The binding was “binds”.

Reference: paper PMC12704088
